Source: article PMC7897678
No constants are given. Whether binding was seen depends on the method and setting. Some binding calls cover weakened binding; strength is not graded here.

Protein sequences, listed by entry. Tags and fused reporters are not part of them. Residues count along the entry.
UniProt P08603, residues 19-1231: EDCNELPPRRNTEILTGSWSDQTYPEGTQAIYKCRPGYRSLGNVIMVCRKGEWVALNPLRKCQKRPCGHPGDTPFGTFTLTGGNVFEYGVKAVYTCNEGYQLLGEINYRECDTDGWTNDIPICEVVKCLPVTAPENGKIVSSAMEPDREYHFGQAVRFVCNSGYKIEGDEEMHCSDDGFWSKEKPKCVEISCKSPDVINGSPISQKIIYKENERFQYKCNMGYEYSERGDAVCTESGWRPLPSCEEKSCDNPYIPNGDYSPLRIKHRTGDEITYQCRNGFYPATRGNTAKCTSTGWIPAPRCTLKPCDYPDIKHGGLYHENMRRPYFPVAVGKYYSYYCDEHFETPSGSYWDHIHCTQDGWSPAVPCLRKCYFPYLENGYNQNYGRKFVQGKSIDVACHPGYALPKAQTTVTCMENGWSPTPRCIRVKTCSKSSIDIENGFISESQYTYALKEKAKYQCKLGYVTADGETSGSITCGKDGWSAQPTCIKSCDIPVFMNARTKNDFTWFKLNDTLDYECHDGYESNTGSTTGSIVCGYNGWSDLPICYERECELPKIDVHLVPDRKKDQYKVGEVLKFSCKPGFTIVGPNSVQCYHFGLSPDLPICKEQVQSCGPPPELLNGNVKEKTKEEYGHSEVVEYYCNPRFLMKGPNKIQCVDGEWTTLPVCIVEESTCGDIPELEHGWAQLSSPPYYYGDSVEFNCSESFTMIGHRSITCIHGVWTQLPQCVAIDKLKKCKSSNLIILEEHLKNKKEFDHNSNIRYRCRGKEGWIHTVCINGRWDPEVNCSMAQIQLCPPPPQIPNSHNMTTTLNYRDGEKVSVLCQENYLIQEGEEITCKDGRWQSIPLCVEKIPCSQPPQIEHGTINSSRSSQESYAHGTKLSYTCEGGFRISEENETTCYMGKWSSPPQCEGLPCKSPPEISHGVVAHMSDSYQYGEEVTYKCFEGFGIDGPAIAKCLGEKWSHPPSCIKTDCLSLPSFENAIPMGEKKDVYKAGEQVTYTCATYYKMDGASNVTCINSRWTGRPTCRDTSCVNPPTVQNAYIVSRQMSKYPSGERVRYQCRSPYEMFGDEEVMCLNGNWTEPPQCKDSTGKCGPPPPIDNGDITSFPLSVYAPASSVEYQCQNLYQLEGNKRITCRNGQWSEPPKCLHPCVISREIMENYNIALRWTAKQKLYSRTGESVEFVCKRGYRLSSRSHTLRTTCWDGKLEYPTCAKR
UniProt P26022, residues 18-381: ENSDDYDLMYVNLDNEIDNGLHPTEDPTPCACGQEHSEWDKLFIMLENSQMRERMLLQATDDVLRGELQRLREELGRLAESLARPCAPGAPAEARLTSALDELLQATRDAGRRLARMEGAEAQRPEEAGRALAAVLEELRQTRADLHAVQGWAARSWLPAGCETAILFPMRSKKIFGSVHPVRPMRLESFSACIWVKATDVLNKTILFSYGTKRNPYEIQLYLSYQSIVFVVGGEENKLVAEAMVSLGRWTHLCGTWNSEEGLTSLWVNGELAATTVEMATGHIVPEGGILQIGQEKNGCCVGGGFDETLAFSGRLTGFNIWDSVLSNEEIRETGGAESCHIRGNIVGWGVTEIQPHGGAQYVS

Target: Factor H (UniProt P08603)
Assay: ELISA; FH coated (10 µg/ml); NP1 and NP2 2.5–20 µg/ml, PTX3 1.2–10 µg/ml in solution; bound pentraxins detected with anti-His-tag antibody; both purified

binding: binds
Substance: His-tagged human pentraxin 3 (from UniProt P26022 18-381)
